Source: PubChem BioAssay AID1224830 (NIAID, 2016)

Purpose: 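Host factors that control LPS-induced TNF expression in human macrophages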 (primary screen)
Cell system: human THP-1 monocytic leukaemia cells, TNF dual-luciferase reporter clone, PMA-differentiated to macrophage-like cells
Reagent: siRNA pool against human genes, 50 nM
Timing: LPS for 4 h, given about 3 days after siRNA transfection
Treatment: bacterial LPS (TLR4 ligand), 10 ng/ml
Measured: 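TNF firefly reporter luminescence divided by renilla, normalised to the plate median, then turned into a robust z-score for each replicate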
Scale: TNF reporter robust z-score: higher = stronger TNF reporter response to LPS
Call rule: 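Each well counts as active if its z-score is over 2.8 or under -1.5; controls are left without a call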
In all, the deposit lists about 18,000 reagents; shown is a part drawn at random. Of all reagents, about 2,900 (16%) got an active call. 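Calls are made per well; low scores hint the gene aids the LPS response, high scores that it dampens it.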 Repeated entries: four replicate wells of each siRNA pool. Reagent sequences are not shown.

The opening 4 entries, to show the layout:
Gene	TNF reporter robust z-score	Outcome
FYRD1 (GeneID 84897)	-0.22	inactive
FYRD1 (GeneID 84897)	4.15	active
FYRD1 (GeneID 84897)	0.74	inactive
FYRD1 (GeneID 84897)	0.31	inactive

The listing, repeating the preview:
Gene	TNF reporter robust z-score	Outcome
FYRD1 (GeneID 84897)	-0.22	inactive
FYRD1 (GeneID 84897)	4.15	active
FYRD1 (GeneID 84897)	0.74	inactive
FYRD1 (GeneID 84897)	0.31	inactive
OAZ1 (GeneID 4946)	3.21	active
OAZ1 (GeneID 4946)	0.8	inactive
OAZ1 (GeneID 4946)	3.54	active
OAZ1 (GeneID 4946)	3.44	active
IGF2BP3 (GeneID 10643)	0.34	inactive
IGF2BP3 (GeneID 10643)	-0.13	inactive
IGF2BP3 (GeneID 10643)	0.45	inactive
IGF2BP3 (GeneID 10643)	1.74	inactive
MEX3C (GeneID 51320)	-0.01	inactive
MEX3C (GeneID 51320)	0.14	inactive
MEX3C (GeneID 51320)	-0.35	inactive
MEX3C (GeneID 51320)	0.59	inactive
LPIN1 (GeneID 23175)	1.99	inactive
LPIN1 (GeneID 23175)	0.3	inactive
LPIN1 (GeneID 23175)	0.93	inactive
LPIN1 (GeneID 23175)	1.6	inactive
RGMA (GeneID 56963)	-0.69	inactive
RGMA (GeneID 56963)	-0.19	inactive
RGMA (GeneID 56963)	-0.46	inactive
RGMA (GeneID 56963)	-0.09	inactive
MRTFA (GeneID 57591)	-0.64	inactive
MRTFA (GeneID 57591)	-0.18	inactive
MRTFA (GeneID 57591)	-1.08	inactive
MRTFA (GeneID 57591)	-0.57	inactive
DUSP19 (GeneID 142679)	0.54	inactive
DUSP19 (GeneID 142679)	0.24	inactive
DUSP19 (GeneID 142679)	1.28	inactive
DUSP19 (GeneID 142679)	0.59	inactive
CUL4A (GeneID 8451)	-0.61	inactive
CUL4A (GeneID 8451)	-0.08	inactive
CUL4A (GeneID 8451)	-0.76	inactive
CUL4A (GeneID 8451)	0.31	inactive
SPATA31A3 (GeneID 727830)	-0.31	inactive
SPATA31A3 (GeneID 727830)	1.58	inactive
SPATA31A3 (GeneID 727830)	0.46	inactive
SPATA31A3 (GeneID 727830)	1.27	inactive
ZNF529 (GeneID 57711)	-0.5	inactive
ZNF529 (GeneID 57711)	-0.25	inactive
ZNF529 (GeneID 57711)	-0.62	inactive
ZNF529 (GeneID 57711)	0.97	inactive
DHODH (GeneID 1723)	1.82	inactive
DHODH (GeneID 1723)	1.53	inactive
DHODH (GeneID 1723)	2.93	active
DHODH (GeneID 1723)	1.97	inactive
KLRC1 (GeneID 3821)	2.26	inactive
KLRC1 (GeneID 3821)	1.24	inactive
KLRC1 (GeneID 3821)	1.65	inactive
KLRC1 (GeneID 3821)	3.9	active
H3-5 (GeneID 440093)	-0.47	inactive
H3-5 (GeneID 440093)	-1.04	inactive
H3-5 (GeneID 440093)	-0.95	inactive
H3-5 (GeneID 440093)	-0.74	inactive
MED1 (GeneID 5469)	0.01	inactive
MED1 (GeneID 5469)	-0.85	inactive
MED1 (GeneID 5469)	-0.96	inactive
MED1 (GeneID 5469)	-0.11	inactive
GRHL2 (GeneID 79977)	0.76	inactive
GRHL2 (GeneID 79977)	2.79	inactive
GRHL2 (GeneID 79977)	1.87	inactive
GRHL2 (GeneID 79977)	1.76	inactive
SART3 (GeneID 9733)	1.15	inactive
SART3 (GeneID 9733)	4.84	active
SART3 (GeneID 9733)	1.04	inactive
SART3 (GeneID 9733)	-0.13	inactive
DNAJC27 (GeneID 51277)	-0.85	inactive
DNAJC27 (GeneID 51277)	-0.95	inactive
DNAJC27 (GeneID 51277)	-1.02	inactive
DNAJC27 (GeneID 51277)	-0.75	inactive
DONSON (GeneID 29980)	1.35	inactive
DONSON (GeneID 29980)	2.32	inactive
DONSON (GeneID 29980)	0.81	inactive
DONSON (GeneID 29980)	0.88	inactive
EPB41L4A (GeneID 64097)	-0.07	inactive
EPB41L4A (GeneID 64097)	-0.25	inactive
EPB41L4A (GeneID 64097)	-0.56	inactive
EPB41L4A (GeneID 64097)	-0.27	inactive
RASAL2 (GeneID 9462)	-1.77	active
RASAL2 (GeneID 9462)	-1.69	active
RASAL2 (GeneID 9462)	-1.86	active
RASAL2 (GeneID 9462)	-1.63	active
SLC28A3 (GeneID 64078)	0.65	inactive
SLC28A3 (GeneID 64078)	1.15	inactive
SLC28A3 (GeneID 64078)	0.37	inactive
SLC28A3 (GeneID 64078)	0.8	inactive
EFNA2 (GeneID 1943)	-2.06	active
EFNA2 (GeneID 1943)	-1	inactive
EFNA2 (GeneID 1943)	-1.37	inactive
EFNA2 (GeneID 1943)	-0.91	inactive
RFXANK (GeneID 8625)	0.05	inactive
RFXANK (GeneID 8625)	1.5	inactive
RFXANK (GeneID 8625)	1.66	inactive
BABAM1 (GeneID 29086)	2.24	inactive
BABAM1 (GeneID 29086)	0.93	inactive
BABAM1 (GeneID 29086)	1.38	inactive
BABAM1 (GeneID 29086)	0.98	inactive
SLC1A5 (GeneID 6510)	0.25	inactive
SLC1A5 (GeneID 6510)	-0.16	inactive
SLC1A5 (GeneID 6510)	0.08	inactive
SLC1A5 (GeneID 6510)	-0.06	inactive
SPEF2 (GeneID 79925)	-0.81	inactive
SPEF2 (GeneID 79925)	-1.07	inactive
SPEF2 (GeneID 79925)	-1.31	inactive
SPEF2 (GeneID 79925)	-1.08	inactive
ERICH1 (GeneID 157697)	-1.07	inactive
ERICH1 (GeneID 157697)	1.11	inactive
ERICH1 (GeneID 157697)	-0.04	inactive
ERICH1 (GeneID 157697)	-0.23	inactive
